{
  "sequences": {"note": "By UniProt entry, the sequences of proteins in these tests, tags left out. Where a name states a change or a piece, a line headed by the entry shows the natural chain unless it says otherwise.", "UniProt P63331": "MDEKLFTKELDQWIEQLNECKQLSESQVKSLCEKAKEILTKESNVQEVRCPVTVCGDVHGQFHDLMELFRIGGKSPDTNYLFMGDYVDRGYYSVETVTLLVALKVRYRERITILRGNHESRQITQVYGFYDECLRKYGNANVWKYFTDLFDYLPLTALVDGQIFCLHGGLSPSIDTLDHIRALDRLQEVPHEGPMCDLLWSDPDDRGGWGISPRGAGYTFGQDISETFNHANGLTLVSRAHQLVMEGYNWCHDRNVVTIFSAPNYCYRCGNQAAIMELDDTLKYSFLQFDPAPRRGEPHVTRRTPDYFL", "UniProt D3ZMG0": "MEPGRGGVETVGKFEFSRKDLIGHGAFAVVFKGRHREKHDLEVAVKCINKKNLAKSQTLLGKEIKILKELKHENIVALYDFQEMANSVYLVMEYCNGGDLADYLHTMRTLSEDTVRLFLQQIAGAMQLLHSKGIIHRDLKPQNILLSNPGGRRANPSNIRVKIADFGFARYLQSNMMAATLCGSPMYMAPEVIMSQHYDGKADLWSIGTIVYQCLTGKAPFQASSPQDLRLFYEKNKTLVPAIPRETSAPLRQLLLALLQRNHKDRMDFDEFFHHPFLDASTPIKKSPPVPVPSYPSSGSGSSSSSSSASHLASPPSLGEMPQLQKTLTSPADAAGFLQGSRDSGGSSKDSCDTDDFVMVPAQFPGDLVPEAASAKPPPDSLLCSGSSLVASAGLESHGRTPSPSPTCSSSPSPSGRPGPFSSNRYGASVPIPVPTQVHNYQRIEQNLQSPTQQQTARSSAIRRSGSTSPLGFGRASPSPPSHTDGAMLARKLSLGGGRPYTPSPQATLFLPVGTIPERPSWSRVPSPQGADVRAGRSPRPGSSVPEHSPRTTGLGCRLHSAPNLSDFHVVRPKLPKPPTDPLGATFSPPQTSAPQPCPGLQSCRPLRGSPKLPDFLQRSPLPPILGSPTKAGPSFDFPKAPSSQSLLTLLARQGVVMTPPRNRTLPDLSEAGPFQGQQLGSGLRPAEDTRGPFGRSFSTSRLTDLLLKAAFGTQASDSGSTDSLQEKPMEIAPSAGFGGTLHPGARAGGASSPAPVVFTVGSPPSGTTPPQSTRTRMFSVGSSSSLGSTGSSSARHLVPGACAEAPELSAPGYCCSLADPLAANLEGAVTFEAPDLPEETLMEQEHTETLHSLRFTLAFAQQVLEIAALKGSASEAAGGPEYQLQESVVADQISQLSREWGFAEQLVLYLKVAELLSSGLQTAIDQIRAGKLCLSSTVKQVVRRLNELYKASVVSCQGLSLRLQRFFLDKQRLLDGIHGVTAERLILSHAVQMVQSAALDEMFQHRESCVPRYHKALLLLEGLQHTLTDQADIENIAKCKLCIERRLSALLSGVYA"},
  "source": "paper PMC11423161",
  "molecular_target": "catalytic subunit of protein phosphatase 2A (PP2Ac) (rat (endogenous in BMMs of SD rats)) (UniProt P63331)",
  "assay": "co-IP; endogenous proteins in lysates of rat BMMs, with or without RANKL for 16 h and with or without PP2Ac siRNA; 1 µg primary antibody and Protein A/G magnetic beads, 4 °C overnight; co-precipitated ULK1 detected by western blot",
  "note": "No constants are given. Whether binding was seen depends on the method and setting. In cells and extracts the contact can be indirect. Binding can be weak; no strength is given.",
  "data": [
    {"substance": "ULK1 (from UniProt D3ZMG0) (enzyme)", "values": [
      {"measurement": "binding", "result": "binds"}
    ]}
  ]
}
